Measured values as given in patent US12209086B2, “FGFR3 inhibitor compounds” (ELI LILLY AND COMPANY, priority 2021, dated 2025).
Some entries share one result that the patent states for a list of compounds.

The chains behind the UniProt entries cited, without tags or fusion partners. Residues count along the entry.
UniProt P22607, 23-806: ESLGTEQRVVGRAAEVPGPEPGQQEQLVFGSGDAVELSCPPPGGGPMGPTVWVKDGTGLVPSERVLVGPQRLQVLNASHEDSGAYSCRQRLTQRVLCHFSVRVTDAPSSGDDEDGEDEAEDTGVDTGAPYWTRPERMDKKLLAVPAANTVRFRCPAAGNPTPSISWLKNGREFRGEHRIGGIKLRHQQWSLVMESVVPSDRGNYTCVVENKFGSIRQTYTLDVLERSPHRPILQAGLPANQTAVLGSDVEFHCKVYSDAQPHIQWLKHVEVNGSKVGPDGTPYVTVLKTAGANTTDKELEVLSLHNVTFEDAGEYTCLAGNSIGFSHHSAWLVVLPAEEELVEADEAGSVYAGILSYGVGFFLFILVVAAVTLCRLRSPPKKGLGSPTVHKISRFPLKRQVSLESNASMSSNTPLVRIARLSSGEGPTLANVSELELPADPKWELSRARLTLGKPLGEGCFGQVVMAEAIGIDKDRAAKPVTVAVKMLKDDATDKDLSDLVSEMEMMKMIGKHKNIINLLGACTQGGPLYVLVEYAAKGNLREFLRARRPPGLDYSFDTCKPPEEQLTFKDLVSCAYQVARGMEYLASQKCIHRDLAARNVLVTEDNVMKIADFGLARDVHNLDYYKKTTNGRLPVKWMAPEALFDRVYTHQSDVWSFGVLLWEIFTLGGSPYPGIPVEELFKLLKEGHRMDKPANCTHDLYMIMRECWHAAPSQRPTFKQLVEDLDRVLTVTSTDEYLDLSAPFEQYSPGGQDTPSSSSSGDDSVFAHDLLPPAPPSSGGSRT

Legend:
[1] = target: T1, FGFR3 protein (Homo sapiens, UniProt P22607); assay: FGFR3 enzyme assay (KinEASE-TK HTRF kinase assay); assay type: biochemical; conditions: 0.25 nM enzyme, ATP at Km, 15 min pre-incubation on ice, 30 min at 30° C.
T1 construct: purchased Reaction Biology 1068

[2] = test system: FGFR1 protein; assay: FGFR1 enzyme assay (KinEASE-TK HTRF kinase assay); assay type: biochemical; conditions: IC50 FGFR1 divided by IC50 FGFR3

In the case of `Cc1c(-c2cc(OC(C)c3ccccc3-c3ccon3)n3c(C#N)cnc3c2)nnn1C1CCN(C#N)CC1` (single isomer, unassigned) [Example 142, 7-[1-(1-Cyano-4-piperidyl)-5-methyl-triazol-4-yl]-5-[1-(2-isoxazol-3-ylphenyl)ethoxy] imidazo [1,2-a]pyridine-3-carbonitrile], the IC50 [1] is reported as less than 350 nM and the “fold more selective for FGFR3 than for FGFR1” value (“fold more selective” for short) [2] is reported as “at least 3 fold”.

`Cc1c(-c2cc(OC(c3ccccn3)C(C)(C)C)n3c(C#N)cnc3c2)nnn1C1CCN(C#N)CC1` (single isomer, unassigned) [Example 264, 7-[1-(1-Cyano-4-piperidyl)-5-methyl-triazol-4-yl]-5-[2,2-dimethyl-1-(2-pyridyl)propoxy] imidazo[1,2-a]pyridine-3-carbonitrile] was tested, and the IC50 [1] was less than 350 nM and the “fold more selective” value [2] was “at least 3 fold”.

In the case of `Cc1c(-c2cc(OC(C)c3ccccc3C(=O)N(C)C)c3c(C#N)cnn3c2)nnn1C1CCN(C#N)CC1` (single isomer, unassigned; isomer 2) [Example 75, 2-[1-[3-cyano-6-[1-(1-cyano-4-piperidyl)-5-methyl-triazol-4-yl]pyrazolo[1,5-a]pyridin-4-yl]oxyethyl]-N,N-dimethyl-benzamide, Isomer 2], the IC50 [1] is reported as less than 350 nM and the “fold more selective” value [2] is reported as “at least 3 fold”.

With `Cc1c(-c2cc(OC(C)c3ccccc3S(C)(=O)=O)c3c(C#N)cnn3c2)cnn1C1CCN(C#N)CC1` (single isomer, unassigned; isomer 2) [Example 77, 6-[1-(1-Cyano-4-piperidyl)-5-methyl-pyrazol-4-yl]-4-[1-(2-methylsulfonylphenyl)ethoxy]pyrazolo[1,5-a]pyridine-3-carbonitrile, Isomer 2] the “fold more selective” value [2] was “at least 3 fold”.

In the case of `Cc1c(-c2cc(OC(C)c3cc(C(F)(F)F)cnc3N3CCOCC3)c3c(C#N)cnn3c2)nnn1C1CCN(C#N)CC1` (stereo not drawn) [Example 13, 6-[1-(1-Cyano-4-piperidyl)-5-methyl-triazol-4-yl]-4-[1-[2-morpholino-5-(trifluoromethyl)-3-pyridyl]ethoxy]pyrazolo [1,5-a]pyridine-3-carbonitrile], the IC50 [1] is reported as less than 350 nM and the “fold more selective” value [2] is reported as “at least 3 fold”.

For `COc1cc(-c2cnn(C3CN(C4CC5CC(C4)N(C#N)C5)C3)c2C)cn2ncc(C#N)c12` (stereo not drawn) [Example 225, 6-(1-(1-(6-cyano-6-azabicyclo[3.2.1]octan-3-yl)azetidin-3-yl)-5-methyl-1H-pyrazol-4-yl)-4-methoxypyrazolo[1,5-a]pyridine-3-carbonitrile], the IC50 [1] was less than 350 nM and the “fold more selective” value [2] was “at least 3 fold”.

For `Cc1c(-c2cc(O[C@H](C)c3ccccn3)n3c(Cl)cnc3c2)nnn1C1CN(C2CCN(C#N)CC2)C1` [Example 233, 4-[3-[4-[3-Chloro-5-[(1R)-1-(2-pyridyl)ethoxy]imidazo[1,2-a]pyridin-7-yl]-5-methyl-triazol-1-yl]azetidin-1-yl]piperidine-1-carbonitrile], the IC50 [1] was less than 350 nM and the “fold more selective” value [2] was “at least 3 fold”.

With `Cc1c(-c2cc(O[C@H](C)c3nncn3CC(F)(F)F)n3c(C#N)cnc3c2)nnn1C1CCN(C#N)CC1` [Example 274, 7-[1-(1-Cyano-4-piperidyl)-5-methyl-triazol-4-yl]-5-[(1R)-1-[4-(2,2,2-trifluoroethyl)-1,2,4-triazol-3-yl]ethoxy]imidazo [1,2-a]pyridine-3-carbonitrile] the IC50 [1] was less than 350 nM and the “fold more selective” value [2] was “at least 3 fold”.

Molecule `Cc1c(-c2cc3ncc(C#N)n3c(O[C@H](C)c3ccc(F)cn3)n2)cnn1C1CCN(C#N)CC1` [Example 295, 7-[1-(1-Cyano-4-piperidyl)-5-methyl-pyrazol-4-yl]-5-[(1R)-1-(5-fluoro-2-pyridyl)ethoxy] imidazo[1,2-c]pyrimidine-3-carbonitrile] has an IC50 [1] of less than 350 nM.

Work on `Cc1c(-c2cc3ncc(Cl)n3c(O[C@H](C)c3ccc(F)cn3)n2)cnn1C1CCN(C#N)CC1` [Example 296, 4-[4-[3-Chloro-5-[(1R)-1-(5-fluoro-2-pyridyl)ethoxy]imidazo[1,2-c]pyrimidin-7-yl]-5-methyl-pyrazol-1-yl]piperidine-1-carbonitrile] yielded an IC50 [1] of less than 350 nM.

`Cc1c(-c2cc(O[C@H](C)c3ccccc3C#N)c3c(Cl)cnn3c2)cnn1C1CCN(C#N)CC1` [Example 297, 4-[4-[3-Chloro-4-[(1R)-1-(2-cyanophenyl)ethoxy]pyrazolo[1,5-a]pyridin-6-yl]-5-methyl-pyrazol-1-yl]piperidine-1-carbonitrile] showed an IC50 [1] of less than 350 nM.
